Measured values taken from the supplement of paper PMC6078165.
Values are relative to the signal before dosing, not to a vehicle control; the signal also falls without drug.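 Fibroblast labels name human fibroblasts: mostly primary ones from tissues such as uterus (C12385, HUF), lung (H6013), bone (Hs27A), adrenal (HADF) and skin (WS1), plus mammary HMF and breast cancer-associated Hs343T. The cancer cells are basal-like or mesenchymal-like triple-negative breast cancer lines. The paper calls a changed response a hit when it shifts by more than 3x the replicate standard deviation. The tissue of the other fibroblasts is not given here.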

Tested on: BT20
Test: relative JC-1 red fluorescence (viability) vs pre-drug, coculture with fibroblast (fraction); higher = more viable cancer cells
Conditions: 100 µM
Description: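 JC-1 labelled TNBC cells cocultured 1:1 (1,500 cells each) with CellTrace Violet stained primary or stromal fibroblasts in 384-well plates in FluoroBrite medium, treated with one of 42 anticancer drugs at 0.1, 1, 10 or 100 uM. JC-1 red fluorescence (mitochondrial integrity in cancer cells only) was read by plate reader every 8 h for 72 h. Values are normalised to each well's pre-drug value. The stock of one drug was tenfold lower, so its dose labels may be too high.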

N.N.[Cl][Pt][Cl] [Cisplatin]
relative JC-1 red fluorescence
Conditions	8 h	16 h	24 h	32 h	40 h	48 h	56 h	64 h	72 h
coculture fibroblast: C12385	0.8756	0.715	0.713	0.654	0.603	0.595	0.583	0.578	0.573
coculture fibroblast: H6013	0.825	0.592	0.617	0.521	0.498	0.482	0.495	0.482	0.465
coculture fibroblast: H6019	0.82	0.508	0.449	0.396	0.355	0.339	0.317	0.304	0.292
coculture fibroblast: H6076	0.91001	0.6186	0.523	0.49	0.474	0.453	0.455	0.444	0.423
coculture fibroblast: H6231	0.789	0.643	0.562	0.533	0.512	0.488	0.482	0.475	0.469
coculture fibroblast: HADF	0.857	0.575	0.615	0.521	0.507	0.486	0.487	0.477	0.457
coculture fibroblast: HCFa	0.832	0.682	0.732	0.65	0.633	0.607	0.607	0.595	0.573
coculture fibroblast: HCPF	0.913	0.67	0.505	0.467	0.447	0.419	0.414	0.41	0.39
coculture fibroblast: HHSteC	0.834	0.654	0.69	0.604	0.596	0.577	0.585	0.571	0.556
coculture fibroblast: HMF	0.9096	0.605	0.474	0.433	0.429	0.41	0.412	0.411	0.399
coculture fibroblast: HPFa	0.8106	0.639	0.68	0.618	0.616	0.595	0.608	0.6	0.575
coculture fibroblast: HUF	0.84973	0.5474	0.507	0.44	0.402	0.383	0.379	0.368	0.364
coculture fibroblast: Hs5	0.905	0.629	0.56	0.521	0.505	0.486	0.482	0.473	0.46
coculture fibroblast: Hs27A	0.841	0.696	0.792	0.648	0.624	0.618	0.637	0.624	0.603
coculture fibroblast: Hs343T	0.878	0.49	0.369	0.334	0.325	0.3	0.303	0.294	0.29
coculture fibroblast: WS1	0.828	0.589	0.501	0.392	0.334	0.31	0.297	0.283	0.274
